Data: article PMC7038984
Results are given in words; binding and its absence hold for the method and conditions named. Binding seen in cells or lysates may run through a third protein. Some binding calls cover weakened binding; strength is not graded here. Sequences can lack the tags named with a protein.

Biological target: T1, FLAG::CG33172 (Drosophila melanogaster) (UniProt Q86B53)
T1 sequence: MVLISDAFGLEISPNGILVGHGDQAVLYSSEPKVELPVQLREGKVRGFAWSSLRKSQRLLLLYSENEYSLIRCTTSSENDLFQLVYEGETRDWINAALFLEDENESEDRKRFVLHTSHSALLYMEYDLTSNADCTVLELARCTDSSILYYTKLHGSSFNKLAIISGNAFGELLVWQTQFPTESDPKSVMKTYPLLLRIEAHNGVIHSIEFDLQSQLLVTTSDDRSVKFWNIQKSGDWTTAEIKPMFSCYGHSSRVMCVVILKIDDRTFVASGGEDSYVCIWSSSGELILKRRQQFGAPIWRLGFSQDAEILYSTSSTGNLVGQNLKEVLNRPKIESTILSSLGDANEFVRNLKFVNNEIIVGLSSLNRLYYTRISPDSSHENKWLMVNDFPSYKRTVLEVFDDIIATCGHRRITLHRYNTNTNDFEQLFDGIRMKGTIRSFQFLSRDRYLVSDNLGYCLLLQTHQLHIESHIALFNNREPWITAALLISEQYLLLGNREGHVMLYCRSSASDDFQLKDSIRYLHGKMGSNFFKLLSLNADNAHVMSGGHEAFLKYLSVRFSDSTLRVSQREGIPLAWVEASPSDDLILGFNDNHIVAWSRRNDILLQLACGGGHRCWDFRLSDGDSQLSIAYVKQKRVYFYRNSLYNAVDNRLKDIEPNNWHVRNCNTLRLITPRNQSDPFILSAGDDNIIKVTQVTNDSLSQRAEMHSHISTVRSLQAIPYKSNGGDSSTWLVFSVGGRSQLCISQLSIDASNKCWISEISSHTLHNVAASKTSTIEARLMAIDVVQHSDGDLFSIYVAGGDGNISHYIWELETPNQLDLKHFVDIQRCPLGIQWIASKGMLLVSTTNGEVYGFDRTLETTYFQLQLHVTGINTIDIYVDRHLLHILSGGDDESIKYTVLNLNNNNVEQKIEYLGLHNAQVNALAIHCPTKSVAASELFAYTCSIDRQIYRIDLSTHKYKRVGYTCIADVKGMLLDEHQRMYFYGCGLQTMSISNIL
Experiment: co-IP; GST::CG7009 or GST alone co-expressed with FLAG::CG33172 in E. coli C41; purified over Flag-coupled resin, washed three times in 500 mM KCl, eluted with Flag peptide; western blot with anti-GST HRP conjugate

B1: GST::CG7009 (enzyme, UniProt Q9VDD9 1-320)
chain: MGRTSKDKRDIFYRLAKEQGWRARSAFKLLQADETFQLLEGLTRAVDLCAAPGSWSQVLAKRLYEPLPPEEREKVKIIAVDLQGMAPIEGVKQLRADISKESTAEAIIEFFGGEKAQIVVSDGAPDSTGMHDFDSYVQGELLLSALSISTFILEEGGSFVSKIYRADRTSRLYTQLKRFFKNVCVFKPSASRNSSIEAFVVAREFCLPDGYKPCNLTTEWHDQPESWVGRKKESPPVVQVPFVAYKGELDSDRTYDLGENYVYKEPVQQPLTAAYQDILQKTSQVNIKYEGIRVIHDEEMLKKWLENDENKSEKLGACVT
**Q.** With B1 as the binder, how does the binding read?
**A.** binds
